No constants are given. Whether binding was seen depends on the method and setting. Some binding calls cover weakened binding; strength is not graded here. Tags and fused reporters may be left off the sequences shown.
Legend:
[1] = biological target: T1, HPS protein fragment 210-1292 fused to the Gal4 activator domain (reverse screen) (yeast; human) (UniProt Q92902); experiment: yeast two-hybrid, reverse screen; listed under the sequences interacting with the HPS protein domain 210-1292
T1 sequence: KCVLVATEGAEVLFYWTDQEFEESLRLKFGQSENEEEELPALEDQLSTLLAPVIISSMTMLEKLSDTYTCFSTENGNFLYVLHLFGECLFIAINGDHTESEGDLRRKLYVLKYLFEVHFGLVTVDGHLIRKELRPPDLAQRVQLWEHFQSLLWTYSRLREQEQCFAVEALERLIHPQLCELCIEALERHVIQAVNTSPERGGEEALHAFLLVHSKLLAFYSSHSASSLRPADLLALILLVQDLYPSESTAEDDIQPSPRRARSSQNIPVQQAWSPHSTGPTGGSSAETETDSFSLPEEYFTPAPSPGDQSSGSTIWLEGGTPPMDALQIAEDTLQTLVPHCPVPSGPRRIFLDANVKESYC

The chains behind the UniProt entries cited, without tags or fusion partners. Where a name states a change or a piece, a line headed by the entry shows the natural chain unless it says otherwise.
UniProt P04386: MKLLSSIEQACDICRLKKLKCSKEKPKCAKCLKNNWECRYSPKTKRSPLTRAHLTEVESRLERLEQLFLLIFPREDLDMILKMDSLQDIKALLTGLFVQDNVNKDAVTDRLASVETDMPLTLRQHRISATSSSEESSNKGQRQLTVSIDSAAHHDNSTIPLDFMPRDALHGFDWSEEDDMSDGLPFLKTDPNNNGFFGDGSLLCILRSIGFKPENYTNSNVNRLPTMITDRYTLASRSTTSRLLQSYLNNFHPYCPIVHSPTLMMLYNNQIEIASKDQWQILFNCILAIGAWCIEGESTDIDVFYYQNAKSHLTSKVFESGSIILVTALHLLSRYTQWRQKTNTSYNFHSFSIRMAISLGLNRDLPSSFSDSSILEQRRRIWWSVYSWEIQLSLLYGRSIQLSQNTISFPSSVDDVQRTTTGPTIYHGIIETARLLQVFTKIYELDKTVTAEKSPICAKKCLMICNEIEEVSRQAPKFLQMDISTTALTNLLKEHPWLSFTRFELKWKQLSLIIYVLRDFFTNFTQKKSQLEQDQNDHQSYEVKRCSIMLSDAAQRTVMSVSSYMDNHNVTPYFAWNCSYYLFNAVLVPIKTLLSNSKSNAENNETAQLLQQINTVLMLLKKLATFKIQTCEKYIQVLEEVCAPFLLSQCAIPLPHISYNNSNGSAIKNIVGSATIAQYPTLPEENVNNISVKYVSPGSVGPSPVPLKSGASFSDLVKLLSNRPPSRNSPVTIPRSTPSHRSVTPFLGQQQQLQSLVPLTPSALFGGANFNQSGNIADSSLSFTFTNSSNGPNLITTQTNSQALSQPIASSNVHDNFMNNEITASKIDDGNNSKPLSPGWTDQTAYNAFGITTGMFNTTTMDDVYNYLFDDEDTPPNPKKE

[2] = biological target: T1, HPS protein fragment 210-1292 fused to the Gal4 activator domain (reverse screen) (yeast; human); experiment: yeast two-hybrid, reverse screen; listed in Table I as an interaction with HPS 210-1292, 2 isolates
[3] = biological target: T1, HPS protein fragment 210-1292 fused to the Gal4 activator domain (reverse screen) (yeast; human); experiment: yeast two-hybrid mating, recapitulation of the interactions identified in the reverse screens
[4] = biological target: T1, HPS protein fragment 210-1292 fused to the Gal4 activator domain (reverse screen) (yeast; human); experiment: yeast two-hybrid, reverse screen; listed in Table I as an interaction with HPS 210-1292, 1 isolate

Measured: binding

DiGeorge Syndrome (DGS)-I protein, prey inserts starting at nucleotides 16 and 27 of GenBank L77566, fused to the Gal4 DNA binding domain (from UniProt P04386 1-147; Q96DF8 1-476)
binds: all assays above

Reference: US6573364
